Reference: article PMC6199744, “Development of Chemical Proteomics for the Folateome and Analysis of the Kinetoplastid Folateome” (ACS Infectious Diseases, 2018)
Where two headings read alike, the source gives them in different places. Further values from the same series stand in other lists.

System: T. brucei lysate proteins
Format: binding, Trypanosoma brucei

SMILES: Nc1nc2cccc(-c3ccccc3)c2n1Cc1ccc(Cl)c(Cl)c1 [compound 3]
- fold change (protein TB09.211.2740 GIM5B PROTEIN, vehicle control = 1): 0.9
- fold change (protein TB09.211.4760 METACASPASE 5, PUTATIVE, vehicle control = 1): 1.4
- fold change (protein TB11.03.0530 HY[…], CONSERVED, vehicle control = 1): 0.97
- fold change (protein TB427TMP.01.2460 HY[…], CONSERVED, vehicle control = 1): 0.95
- fold change (protein TB427TMP.01.3110 HEAT SHOCK PROTEIN 70, vehicle control = 1): 0.98
- fold change (protein TB427TMP.01.4750 […] 1 GAMMA, PUTATIVE, vehicle control = 1): 0.65
- fold change (protein TB427TMP.01.6180 HY[…], CONSERVED, vehicle control = 1): 0.94
- fold change (protein TB427TMP.01.7290 NUDIX HYDROLASE, CONSERVED, vehicle control = 1): 0.99
- fold change (protein TB427TMP.01.8560 HY[…], CONSERVED, vehicle control = 1): 0.98
- fold change (protein TB427TMP.02.2410 CLATHRIN COAT ASSEMBLY PROTEIN, PUTATIVE, vehicle control = 1): 1
- fold change (protein TB427TMP.02.4300 HY[…], CONSERVED, vehicle control = 1): 0.92
- fold change (protein TB427TMP.03.0030 ABC TRANSPORTER, PUTATIVE, vehicle control = 1): 0.86
- fold change (protein TB427TMP.160.3780 HY[…], CONSERVED, vehicle control = 1): 0.95
- fold change (protein TB427TMP.160.4620 INOSITOL-1(OR 4)-MONOPHOSPHATASE, PUTATIVE, vehicle control = 1): 0.82
- fold change (protein TB427TMP.211.4550 60S RIBOSOMAL PROTEIN L12, PUTATIVE, vehicle control = 1): 1.7
- fold change (protein TB427.02.5820 HY[…], CONSERVED, vehicle control = 1): 1.29
- fold change (protein TB427.02.5900 HY[…], CONSERVED, vehicle control = 1): 1.1
- fold change (protein TB427.04.2060 HY[…], CONSERVED, vehicle control = 1): 0.86
- fold change (protein TB427.05.1700 R[…] A 28 KDA SUBUNIT, PUTATIVE, vehicle control = 1): 0.91
- fold change (protein TB427.05.550 VACUOLAR ATP SYNTHASE, PUTATIVE, vehicle control = 1): 0.99
- fold change (protein TB427.06.4740 IMPORTIN-ALPHA RE-EXPORTER PROTEIN, PUTATIVE, vehicle control = 1): 0.95
- fold change (protein TB427.07.3160 DYNEIN HEAVY CHAIN, CYTOSOLIC, PUTATIVE, vehicle control = 1): 1.39
- fold change (protein TB427.07.4170 FATTY ACID ELONGASE, PUTATIVE, vehicle control = 1): 1.39
- fold change (protein TB427.08.1420 ACYL-COA DEHYDROGENASE, MIT[…], PUTATIVE, vehicle control = 1): 0.77
- fold change (protein TB427.08.1950 HY[…], CONSERVED, vehicle control = 1): 0.98
- fold change (protein TB427.10.10360 MICROTUBULE-[…], PUTATIVE, vehicle control = 1): 1.57
- fold change (protein TB427.10.1060 T-COMPLEX PROTEIN 1, DELTA SUBUNIT, PUTATIVE, vehicle control = 1): 1.2
- fold change (protein TB427.10.12820 HY[…], CONSERVED, vehicle control = 1): 1.41
- fold change (protein TB427.10.1450 HY[…], CONSERVED, vehicle control = 1): 1.38
- fold change (protein TB427.10.15360 HY[…], CONSERVED, vehicle control = 1): 0.93
- fold change (protein TB427.10.3210 DELTA-1-PYRROLINE-5-CARBOXYLATE DEHYDROGENASE, PUTATIVE, vehicle control = 1): 0.98
- fold change (protein TB427.10.5770 VALOSIN-[…] HOMOLOG, vehicle control = 1): 1.53
- fold change (protein TB427.10.5850 HY[…], CONSERVED, vehicle control = 1): 1.29
- fold change (protein TB927.10.12740 HY[…], CONSERVED,ZINC FINGER PROTEIN FAMILY MEMEBER, PUTATIVE, vehicle control = 1): 0.93
- fold change (protein TB927.10.14170 AQUAPORIN 9, PUTATIVE, vehicle control = 1): 2.84
- fold change (protein TB927.10.14820 MIT[…] PROTEIN, PUTATIVE, vehicle control = 1): 0.9
- fold change (protein TB927.10.2640 INTR[…] PROTEIN IFT81, PUTATIVE, vehicle control = 1): 0.98
- fold change (protein TB927.10.2890 ENOLASE, vehicle control = 1): 0.87
- fold change (protein TB927.10.6050 CLATHRIN HEAVY CHAIN, vehicle control = 1): 0.96
- fold change (protein TB927.10.9740 […] SUBUNIT 6, vehicle control = 1): 1.44
- fold change (protein TB927.4.3630 PROTEIN PHOSPHATASE 1, PUTATIVE, vehicle control = 1): 0.99
- fold change (protein TB927.6.2360 ADENOSINE KINASE, PUTATIVE, vehicle control = 1): 0.97
- fold change (protein TB927.8.4810 PROHIBITIN 1, vehicle control = 1): 0.98
- fold change (vs vehicle control, protein HA-UBIQUITIN (CZB00000046.1)): 0.93
- fold change (vs vehicle control, protein TB09.160.2360 POLY(A) EXPORT PROTEIN, PUTATIVE): 1
- fold change (vs vehicle control, protein TB09.211.4460 ADP-RI[…], PUTATIVE): 0.97
- fold change (vs vehicle control, protein TB11.01.3180 GUANINE NUCLEOTIDE-BINDING PROTEIN BETA SUBUNIT-LIKE PROTEIN): 0.89
- fold change (vs vehicle control, protein TB11.01.5860 T-COMPLEX PROTEIN 1, EPSILON SUBUNIT, PUTATIVE): 0.95
- fold change (vs vehicle control, protein TB11.01.8740 PROTEIN PHOSPHATASE 4, PUTATIVE): 0.99
- fold change (vs vehicle control, protein TB11.02.1220 […] SUBUNIT 2): 1
- fold change (vs vehicle control, protein TB427TMP.01.1540 HY[…], CONSERVED): 1
- fold change (vs vehicle control, protein TB427TMP.01.5000 HY[…], CONSERVED): 0.97
- fold change (vs vehicle control, protein TB427TMP.01.8470 DIHYDROLIPOYL DEHYDROGENASE): 1
- fold change (vs vehicle control, protein TB427TMP.02.1690 HY[…], CONSERVED): 0.93
- fold change (vs vehicle control, protein TB427TMP.160.2220 HY[…], CONSERVED): 1
- fold change (vs vehicle control, protein TB427TMP.160.3820 NUCLEOLAR RNA BINDING PROTEIN, PUTATIVE): 0.99
- fold change (vs vehicle control, protein TB427TMP.211.2730 GIM5A PROTEIN): 0.77
- fold change (vs vehicle control, protein TB427TMP.211.4170 HY[…], CONSERVED): 0.91
- fold change (vs vehicle control, protein TB427.02.4130 ENOYL-COA HYDRATASE/ENOYL-COA ISOMERASE/3-HYDROXYACYL-COA DEHYDROGENASE, PUTATIVE): 0.99
- fold change (vs vehicle control, protein TB427.02.5850 SMALL NUCLEAR RIBONUCLEOPROTEIN SMD2): 0.93
- fold change (vs vehicle control, protein TB427.03.1790 PYRUVATE DEHYDROGENASE E1 BETA SUBUNIT, PUTATIVE): 0.99
- fold change (vs vehicle control, protein TB427.04.4300 HY[…], CONSERVED): 0.96
- fold change (vs vehicle control, protein TB427.05.2890 HY[…], CONSERVED): 0.73
- fold change (vs vehicle control, protein TB427.05.4460 MAJOR VAULT PROTEIN, PUTATIVE): 0.76
- fold change (vs vehicle control, protein TB427.06.1500 ALKYL-DIHYDR[…] SYNTHASE): 0.98
- fold change (vs vehicle control, protein TB427.06.2250 RAC SERINE-THREONINE KINASE, PUTATIVE): 0.96
- fold change (vs vehicle control, protein TB427.06.3630 SPHINGOSINE 1-PHOSPHATE LYASE, PUTATIVE): 0.93
- fold change (vs vehicle control, protein TB427.06.4480 VALYL-TRNA SYNTHETASE, PUTATIVE): 0.99
- fold change (vs vehicle control, protein TB427.06.4770 HY[…], CONSERVED): 0.91
- fold change (vs vehicle control, protein TB427.07.2560 HY[…], CONSERVED): 0.99
- fold change (vs vehicle control, protein TB427.07.3370 HY[…], CONSERVED): 0.92
- fold change (vs vehicle control, protein TB427.07.4570 INOSINE-GUANINE […]): 0.98
- fold change (vs vehicle control, protein TB427.08.2460 HY[…], CONSERVED): 0.83
- fold change (vs vehicle control, protein TB427.08.3530 GLYCEROL-3-PHOSPHATE DEH[…]+], GLYCOSOMAL): 0.95
- fold change (vs vehicle control, protein TB427.10.12890 BI[…]-TRNA SYNTHETASE, PUTATIVE): 0.84
- fold change (vs vehicle control, protein TB427.10.13660 HY[…], CONSERVED): 1.1
- fold change (vs vehicle control, protein TB427.10.14890 C-TERMINAL MOTOR KINESIN, PUTATIVE): 0.95
- fold change (vs vehicle control, protein TB427.10.1510 NOT1): 0.92
- fold change (vs vehicle control, protein TB427.10.7740 PROTEIN TRANSPORT PROTEIN SEC23): 0.96
- fold change (vs vehicle control, protein TB427.10.8190 T-COMPLEX PROTEIN 1, THETA SUBUNIT, PUTATIVE): 0.97
- fold change (vs vehicle control, protein TB427.10.8850 HY[…], CONSERVED): 0.93
- fold change (vs vehicle control, protein TB927.10.12330 HY[…], CONSERVED): 0.95
- fold change (vs vehicle control, protein TB927.10.2100 […] 1-ALPHA): 0.96
- fold change (vs vehicle control, protein TB927.10.8160 HY[…], CONSERVED): 0.95
- fold change (vs vehicle control, protein TB927.2.2770 HY[…] TB927 2 2770): 0.91
- fold change (vs vehicle control, protein TB927.2.4930 ESTERASE, PUTATIVE): 0.93
- fold change (vs vehicle control, protein TB927.3.1370 RIBOSOMAL PROTEIN S25, PUTATIVE): 0.89
- fold change (vs vehicle control, protein TB927.3.3270 ATP-DEPENDENT PHOSPHOFRUCTOKINASE): 0.84
- fold change (vs vehicle control, protein TB927.5.4440 DYNEIN LIGHT CHAIN, PUTATIVE): 0.96
- fold change (vs vehicle control, protein TB927.5.960 HY[…], CONSERVED): 0.95
- fold change (vs vehicle control, protein TB927.7.2750 PROTEIN KINASE, PUTATIVE): 0.89
- fold change (vs vehicle control, protein TB927.8.4610 SMALL GTP-BINDING PROTEIN RAB1): 0.93
